For this assay, the target named is T-STAR QUA1-KH domain (human) (UniProt O75525). The experiment in a line: crystal structure; T-STAR constructs in complex with short RNAs (protein/RNA 1:2), sitting drop vapour diffusion at 4 °C; protein in 10 mM Tris pH 7.0, 50 mM NaCl; both purified.

Results are given in words; binding and its absence hold for the method and conditions named. Some results given as binding are weak or reduced against the parent protein; the word gives no strength.

B1: T-STAR QUA1-KH domain (domain or fragment, human)
chain: MEEKYLPELMAEKDSLDPSFTHALRLVNQEIEKFQKGEGKDEEKYIDVVINKNMKLGQKVLIPVKQFPKFNFVGKLLGPRGNSLKRLQEETLTKMSILGKGSMRDKAKEEELRKSGEAKYFHLNDDLHVLIEVFAPPAEAYARMGHALEEIKKFLIPDYN
notes: T-STAR/SLM2, human, QUA1 and KH domains with the linker between them; by the limits of the STAR (1-183) and KH (50-160) constructs they may be 1-160 (surmised); source: E. coli Rosetta BL21 DE3, purified (Ni-NTA, TEV cleavage, size-exclusion chromatography); not shown: His tag (inferred from the Ni-NTA purification)
B1: the binding entry is reported as “binds”.

The values are drawn from PMC4735526 (Nature Communications, 2016).
